{
  "source": "paper doi:10.1101/2022.10.08.511390",
  "target": "T1, 2-oxoglutarate dehydrogenase complex subunit E1o (OGDH), mouse (mouse (endogenous in mouse heart mitochondria)), Q60597",
  "T1 chain": "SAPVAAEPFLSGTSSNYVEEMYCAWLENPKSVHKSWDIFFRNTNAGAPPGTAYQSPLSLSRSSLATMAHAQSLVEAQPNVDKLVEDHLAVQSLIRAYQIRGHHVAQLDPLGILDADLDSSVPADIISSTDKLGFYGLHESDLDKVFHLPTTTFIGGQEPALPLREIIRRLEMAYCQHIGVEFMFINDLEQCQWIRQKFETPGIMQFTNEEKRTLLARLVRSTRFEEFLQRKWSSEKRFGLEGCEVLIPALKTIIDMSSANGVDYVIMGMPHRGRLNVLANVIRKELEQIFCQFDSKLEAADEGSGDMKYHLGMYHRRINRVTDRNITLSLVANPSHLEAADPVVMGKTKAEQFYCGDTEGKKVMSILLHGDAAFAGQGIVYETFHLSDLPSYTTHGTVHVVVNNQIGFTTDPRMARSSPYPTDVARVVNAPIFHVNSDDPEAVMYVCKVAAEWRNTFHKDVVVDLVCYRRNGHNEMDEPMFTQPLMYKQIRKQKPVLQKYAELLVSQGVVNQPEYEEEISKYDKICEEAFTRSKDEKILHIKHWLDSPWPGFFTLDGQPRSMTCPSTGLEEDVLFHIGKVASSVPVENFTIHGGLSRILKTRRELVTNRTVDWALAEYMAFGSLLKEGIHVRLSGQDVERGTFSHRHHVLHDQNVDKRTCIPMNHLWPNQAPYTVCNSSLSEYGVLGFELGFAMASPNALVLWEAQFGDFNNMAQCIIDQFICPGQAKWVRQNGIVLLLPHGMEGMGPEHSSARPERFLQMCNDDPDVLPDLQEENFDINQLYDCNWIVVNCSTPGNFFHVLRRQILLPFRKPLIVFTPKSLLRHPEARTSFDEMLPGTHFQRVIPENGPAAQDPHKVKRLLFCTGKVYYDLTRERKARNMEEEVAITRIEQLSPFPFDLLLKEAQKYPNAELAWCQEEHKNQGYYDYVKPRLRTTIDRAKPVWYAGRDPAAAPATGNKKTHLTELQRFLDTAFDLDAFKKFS",
  "assay": "cross-linking",
  "settings": "remark: other sources report otherwise",
  "note": "Results are given in words; binding and its absence hold for the method and conditions named. In cells and extracts the contact can be indirect.",
  "data": [
    {"binder": "MRPS36 (KGD4), mouse, Q9CQX8 1-102 (protein) MGSKMASATRVVQVVKPHAPLIKFPNRRDKPKLSASEALGSAALPSHSSAISQHSKGSTSPDLLMHQGPPDTAEIIKSLPQKYRRKPMSQEEMEFIQRGGPE", "values": [
      {"measurement": "binding", "result": "no binding"}
    ]}
  ]
}
